No constants are given. Whether binding was seen depends on the method and setting. Some entries that bind do so weakly or less than the wild type.
Target: T1, growth differentiation factor 11 (GDF11) (UniProt O95390)
T1 sequence (looked up): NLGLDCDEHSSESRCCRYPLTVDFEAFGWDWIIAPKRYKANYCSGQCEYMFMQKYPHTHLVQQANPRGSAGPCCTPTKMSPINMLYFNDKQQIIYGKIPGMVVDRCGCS
Assay: SPR (Biacore 3000), receptor captured on chip, ligand in solution

B1: ActRIIa/b+ variant (SEQ ID NO: 150) (receptor)
chain: GAILGRSETQECLFYNANWELERTNQTGVERCEGEKDKRLHCYATWRNISGSIEIVAKGCWLDDFNCYDRTDCVETEENPQVYFCCCEGNMCNEKFSYFPEMEVTQPTS
notes: not shown: Fusion partner and its linker
- binding: binds
